Source: the supplement of paper PMC11006884
Shown are results outside the selection of targets with a hit, which stands elsewhere. This is a noisy data set. This is a selection; strong and weak results do not stand in their true shares.

Protein sequences, listed by entry. Tags and fused reporters are not part of them. Lines headed by an entry give the natural chain unless they say otherwise; changes in a name come on top.
UniProt Q7L2J0: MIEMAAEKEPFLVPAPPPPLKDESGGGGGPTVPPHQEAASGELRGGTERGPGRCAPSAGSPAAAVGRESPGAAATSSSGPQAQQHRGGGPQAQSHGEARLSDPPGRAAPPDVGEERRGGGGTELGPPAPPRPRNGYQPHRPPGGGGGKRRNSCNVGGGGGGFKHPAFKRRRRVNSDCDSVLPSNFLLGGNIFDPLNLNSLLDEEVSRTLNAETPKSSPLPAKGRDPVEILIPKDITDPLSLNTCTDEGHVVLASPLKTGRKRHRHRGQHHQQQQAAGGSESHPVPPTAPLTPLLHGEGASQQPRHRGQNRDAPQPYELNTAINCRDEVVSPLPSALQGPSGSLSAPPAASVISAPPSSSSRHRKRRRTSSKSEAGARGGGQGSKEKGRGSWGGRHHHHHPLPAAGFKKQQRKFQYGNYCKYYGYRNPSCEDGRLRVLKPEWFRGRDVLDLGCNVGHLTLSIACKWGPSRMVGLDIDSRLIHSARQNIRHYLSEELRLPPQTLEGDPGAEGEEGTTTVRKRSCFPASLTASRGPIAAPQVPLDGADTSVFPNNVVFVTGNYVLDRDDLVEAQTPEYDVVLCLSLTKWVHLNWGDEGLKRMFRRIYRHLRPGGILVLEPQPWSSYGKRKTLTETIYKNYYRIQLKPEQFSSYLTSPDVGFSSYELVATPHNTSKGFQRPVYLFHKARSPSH
UniProt Q86VP6: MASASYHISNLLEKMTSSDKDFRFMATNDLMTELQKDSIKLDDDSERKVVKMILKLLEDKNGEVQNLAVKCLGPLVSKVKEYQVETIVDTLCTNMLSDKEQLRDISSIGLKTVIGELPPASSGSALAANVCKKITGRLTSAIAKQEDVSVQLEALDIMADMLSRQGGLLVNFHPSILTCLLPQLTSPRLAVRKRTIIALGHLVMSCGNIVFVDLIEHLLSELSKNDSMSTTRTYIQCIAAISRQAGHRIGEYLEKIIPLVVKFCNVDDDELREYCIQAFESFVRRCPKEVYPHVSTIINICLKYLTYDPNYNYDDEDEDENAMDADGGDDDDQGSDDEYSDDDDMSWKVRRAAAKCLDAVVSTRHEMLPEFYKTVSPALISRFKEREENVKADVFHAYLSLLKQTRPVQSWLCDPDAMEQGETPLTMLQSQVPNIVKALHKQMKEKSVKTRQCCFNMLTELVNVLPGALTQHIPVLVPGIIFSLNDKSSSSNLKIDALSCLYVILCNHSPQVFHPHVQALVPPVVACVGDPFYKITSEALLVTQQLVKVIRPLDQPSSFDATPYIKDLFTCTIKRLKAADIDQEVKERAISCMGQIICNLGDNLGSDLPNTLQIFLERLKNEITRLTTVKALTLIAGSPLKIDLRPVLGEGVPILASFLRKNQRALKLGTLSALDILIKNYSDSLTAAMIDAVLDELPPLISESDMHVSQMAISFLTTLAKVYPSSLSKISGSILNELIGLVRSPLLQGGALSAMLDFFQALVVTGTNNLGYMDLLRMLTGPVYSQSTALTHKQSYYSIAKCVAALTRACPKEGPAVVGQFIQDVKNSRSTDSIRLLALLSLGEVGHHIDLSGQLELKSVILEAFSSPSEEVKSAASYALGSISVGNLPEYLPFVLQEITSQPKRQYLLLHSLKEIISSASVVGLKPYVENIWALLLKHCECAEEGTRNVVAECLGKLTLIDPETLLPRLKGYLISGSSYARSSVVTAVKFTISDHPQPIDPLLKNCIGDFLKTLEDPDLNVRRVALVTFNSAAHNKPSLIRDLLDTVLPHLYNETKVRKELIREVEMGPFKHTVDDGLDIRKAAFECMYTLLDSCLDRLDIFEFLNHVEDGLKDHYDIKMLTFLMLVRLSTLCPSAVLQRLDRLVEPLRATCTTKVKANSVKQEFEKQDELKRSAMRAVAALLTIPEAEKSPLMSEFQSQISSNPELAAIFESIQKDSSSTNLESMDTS
UniProt Q86VW0: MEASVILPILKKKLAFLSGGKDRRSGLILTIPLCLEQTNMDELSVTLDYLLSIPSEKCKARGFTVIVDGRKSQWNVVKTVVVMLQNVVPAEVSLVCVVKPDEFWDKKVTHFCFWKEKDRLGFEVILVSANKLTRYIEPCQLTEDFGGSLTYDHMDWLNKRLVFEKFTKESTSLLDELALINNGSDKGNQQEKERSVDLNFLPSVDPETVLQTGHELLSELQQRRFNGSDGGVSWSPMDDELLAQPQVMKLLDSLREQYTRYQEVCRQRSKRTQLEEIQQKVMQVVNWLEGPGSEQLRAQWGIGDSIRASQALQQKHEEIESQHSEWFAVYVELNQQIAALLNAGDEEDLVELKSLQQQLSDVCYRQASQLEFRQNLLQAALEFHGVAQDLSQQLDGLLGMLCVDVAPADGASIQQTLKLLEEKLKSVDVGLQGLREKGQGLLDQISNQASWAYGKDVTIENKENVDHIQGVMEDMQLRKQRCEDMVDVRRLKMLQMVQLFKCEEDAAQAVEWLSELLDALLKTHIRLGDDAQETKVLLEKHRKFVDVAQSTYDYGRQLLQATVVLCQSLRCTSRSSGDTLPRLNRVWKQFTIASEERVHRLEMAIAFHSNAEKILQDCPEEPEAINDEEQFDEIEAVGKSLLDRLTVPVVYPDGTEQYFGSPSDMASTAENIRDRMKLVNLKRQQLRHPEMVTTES
UniProt Q7Z478: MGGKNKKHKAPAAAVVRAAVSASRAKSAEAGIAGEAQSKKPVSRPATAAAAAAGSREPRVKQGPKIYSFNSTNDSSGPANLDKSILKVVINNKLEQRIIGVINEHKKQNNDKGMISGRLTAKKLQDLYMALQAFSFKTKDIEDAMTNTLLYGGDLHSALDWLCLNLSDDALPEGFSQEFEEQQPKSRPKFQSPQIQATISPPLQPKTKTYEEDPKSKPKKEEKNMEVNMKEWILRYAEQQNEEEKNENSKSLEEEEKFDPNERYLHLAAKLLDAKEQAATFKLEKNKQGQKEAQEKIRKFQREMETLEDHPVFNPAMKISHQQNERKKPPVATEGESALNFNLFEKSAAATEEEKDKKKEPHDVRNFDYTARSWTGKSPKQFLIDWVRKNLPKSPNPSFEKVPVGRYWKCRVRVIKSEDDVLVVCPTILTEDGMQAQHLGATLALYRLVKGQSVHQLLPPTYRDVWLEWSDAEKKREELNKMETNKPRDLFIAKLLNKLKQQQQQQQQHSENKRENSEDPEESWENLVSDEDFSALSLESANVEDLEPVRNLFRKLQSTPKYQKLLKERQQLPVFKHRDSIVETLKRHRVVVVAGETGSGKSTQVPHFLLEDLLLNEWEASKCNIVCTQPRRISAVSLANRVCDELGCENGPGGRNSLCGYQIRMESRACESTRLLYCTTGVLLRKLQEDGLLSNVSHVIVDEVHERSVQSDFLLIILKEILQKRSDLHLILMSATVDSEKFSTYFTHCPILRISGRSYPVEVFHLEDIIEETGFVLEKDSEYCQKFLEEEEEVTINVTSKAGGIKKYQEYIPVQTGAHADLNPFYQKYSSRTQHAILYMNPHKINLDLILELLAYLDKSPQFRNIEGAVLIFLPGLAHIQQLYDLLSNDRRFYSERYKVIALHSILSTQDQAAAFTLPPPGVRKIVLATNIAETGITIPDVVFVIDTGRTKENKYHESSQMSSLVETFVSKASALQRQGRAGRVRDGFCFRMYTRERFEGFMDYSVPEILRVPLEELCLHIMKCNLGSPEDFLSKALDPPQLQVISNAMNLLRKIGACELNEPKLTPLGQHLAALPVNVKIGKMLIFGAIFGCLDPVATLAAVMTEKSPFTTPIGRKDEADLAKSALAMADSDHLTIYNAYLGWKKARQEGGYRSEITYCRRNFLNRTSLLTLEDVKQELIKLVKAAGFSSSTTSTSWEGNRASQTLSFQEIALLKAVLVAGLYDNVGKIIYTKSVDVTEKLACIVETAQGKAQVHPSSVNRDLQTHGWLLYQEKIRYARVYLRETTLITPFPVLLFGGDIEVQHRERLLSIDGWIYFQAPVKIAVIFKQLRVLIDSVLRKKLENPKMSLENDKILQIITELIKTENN
UniProt Q7L576: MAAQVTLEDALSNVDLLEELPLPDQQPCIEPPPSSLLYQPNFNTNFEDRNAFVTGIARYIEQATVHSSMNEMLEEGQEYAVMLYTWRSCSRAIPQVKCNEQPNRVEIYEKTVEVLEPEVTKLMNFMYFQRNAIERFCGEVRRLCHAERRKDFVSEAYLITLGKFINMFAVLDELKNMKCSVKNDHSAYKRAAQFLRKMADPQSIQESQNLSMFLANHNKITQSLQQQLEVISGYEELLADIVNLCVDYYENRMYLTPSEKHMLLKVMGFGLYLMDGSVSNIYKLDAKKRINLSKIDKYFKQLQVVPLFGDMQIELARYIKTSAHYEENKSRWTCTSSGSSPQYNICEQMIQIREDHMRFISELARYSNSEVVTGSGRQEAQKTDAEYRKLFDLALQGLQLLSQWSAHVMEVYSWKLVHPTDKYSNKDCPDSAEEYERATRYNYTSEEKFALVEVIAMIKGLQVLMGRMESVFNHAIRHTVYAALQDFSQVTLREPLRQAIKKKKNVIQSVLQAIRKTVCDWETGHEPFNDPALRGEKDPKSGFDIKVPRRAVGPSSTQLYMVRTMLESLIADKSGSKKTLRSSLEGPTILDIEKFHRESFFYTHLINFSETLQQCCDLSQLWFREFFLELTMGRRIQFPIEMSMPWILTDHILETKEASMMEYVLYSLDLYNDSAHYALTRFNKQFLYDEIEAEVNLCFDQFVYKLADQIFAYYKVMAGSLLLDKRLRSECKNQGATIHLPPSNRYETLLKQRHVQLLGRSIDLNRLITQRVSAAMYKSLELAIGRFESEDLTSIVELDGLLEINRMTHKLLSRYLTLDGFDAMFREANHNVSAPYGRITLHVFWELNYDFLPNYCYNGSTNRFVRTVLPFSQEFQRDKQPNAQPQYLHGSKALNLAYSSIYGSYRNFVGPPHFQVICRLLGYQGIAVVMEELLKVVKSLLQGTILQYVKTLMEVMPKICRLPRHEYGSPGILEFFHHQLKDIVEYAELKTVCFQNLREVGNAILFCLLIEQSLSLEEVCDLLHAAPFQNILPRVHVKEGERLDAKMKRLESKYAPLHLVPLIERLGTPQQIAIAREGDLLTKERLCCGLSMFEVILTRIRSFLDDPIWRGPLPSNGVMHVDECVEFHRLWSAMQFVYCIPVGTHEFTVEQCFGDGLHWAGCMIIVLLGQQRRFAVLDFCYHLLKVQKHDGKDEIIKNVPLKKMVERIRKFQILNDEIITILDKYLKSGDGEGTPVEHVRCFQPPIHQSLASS
UniProt Q7Z4W1: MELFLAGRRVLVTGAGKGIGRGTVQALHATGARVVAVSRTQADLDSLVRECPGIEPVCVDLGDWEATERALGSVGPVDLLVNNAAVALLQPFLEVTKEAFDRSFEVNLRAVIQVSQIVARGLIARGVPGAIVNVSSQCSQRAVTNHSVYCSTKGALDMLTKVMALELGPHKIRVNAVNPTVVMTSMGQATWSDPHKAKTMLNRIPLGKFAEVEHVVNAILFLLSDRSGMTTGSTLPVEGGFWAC
UniProt Q7L1Q6: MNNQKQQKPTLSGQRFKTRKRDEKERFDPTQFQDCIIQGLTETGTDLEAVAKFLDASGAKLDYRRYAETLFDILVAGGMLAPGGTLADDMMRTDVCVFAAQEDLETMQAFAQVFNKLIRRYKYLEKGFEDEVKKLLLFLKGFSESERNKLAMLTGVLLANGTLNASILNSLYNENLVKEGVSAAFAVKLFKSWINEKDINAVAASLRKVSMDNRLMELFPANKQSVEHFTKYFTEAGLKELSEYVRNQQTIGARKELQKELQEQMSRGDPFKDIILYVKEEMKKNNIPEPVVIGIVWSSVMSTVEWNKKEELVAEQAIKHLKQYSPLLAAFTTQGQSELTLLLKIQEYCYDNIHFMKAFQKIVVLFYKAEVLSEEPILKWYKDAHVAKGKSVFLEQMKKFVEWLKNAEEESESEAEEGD
UniProt Q86YR5: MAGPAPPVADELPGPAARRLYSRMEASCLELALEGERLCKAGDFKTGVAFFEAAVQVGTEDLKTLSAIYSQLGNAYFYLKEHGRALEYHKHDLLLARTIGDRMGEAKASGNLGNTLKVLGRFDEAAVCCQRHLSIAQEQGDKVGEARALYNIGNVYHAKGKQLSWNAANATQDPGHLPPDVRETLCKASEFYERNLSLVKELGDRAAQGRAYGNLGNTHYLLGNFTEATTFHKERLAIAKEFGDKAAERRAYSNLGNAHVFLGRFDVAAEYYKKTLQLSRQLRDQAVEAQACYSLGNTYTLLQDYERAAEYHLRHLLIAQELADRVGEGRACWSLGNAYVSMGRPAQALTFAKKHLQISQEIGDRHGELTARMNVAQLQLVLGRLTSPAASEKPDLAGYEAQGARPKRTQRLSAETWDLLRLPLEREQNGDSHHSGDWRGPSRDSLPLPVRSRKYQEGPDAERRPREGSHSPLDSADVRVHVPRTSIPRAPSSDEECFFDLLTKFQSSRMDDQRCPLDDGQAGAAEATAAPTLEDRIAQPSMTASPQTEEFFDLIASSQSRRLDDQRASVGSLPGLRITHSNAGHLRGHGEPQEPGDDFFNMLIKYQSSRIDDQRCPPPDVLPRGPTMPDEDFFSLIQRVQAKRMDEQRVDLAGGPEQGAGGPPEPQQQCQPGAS

compound: COC(=O)/C=C/c1ccccc1 [methyl cinnamate]; experiment: log2 ratio of iodoacetamide-alkyne labeling of the cysteine site, DMSO over compound (competition); higher = stronger covalent engagement of the cysteine by the compound, active = 1 or more; settings: 500 µM; treatment time 1 h; system: HEK293T cell lysate
How it was run: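 The log2 competition ratio per cysteine is defined as mean reporter intensity in control channels over mean reporter intensity in compound channels. Lysate from HEK293T cells (2 mg/mL) received electrophile (500 µM) or vehicle for 1 h at ambient temperature, followed by iodoacetamide alkyne for 1 h. Samples were clicked to sCIP-TMT reagents, pooled, trypsin-digested overnight at 37 °C, streptavidin-enriched, acid-eluted and run on Orbitrap Eclipse LC-MS/MS with FAIMS, with quantification in FragPipe. Three replicates with duplicate channels were used, and any cysteine quantified in only one replicate was excluded.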

log2 ratio of iodoacetamide-alkyne labeling, inactive:
ZC3HAV1 C38 (UniProt Q7Z2W4) -0.145, RHOT2 C216 (UniProt Q8IXI1) 0.313, CCDC25 C83 (UniProt Q86WR0) 0.248, ZFYVE16 C292 (UniProt Q7Z3T8) -0.0612, MEPCE C324 (UniProt Q7L2J0) 0.141, UniProt Q7LBC6_C1448 -0.0343, IRF2BP1 C207 (UniProt Q8IU81) 0.0933, CAND1 C954 (UniProt Q86VP6) -0.0574, HEATR3 C655 (UniProt Q7Z4Q2) 0.0882, PBRM1 C450 (UniProt Q86U86) 0.0266, SESTD1 C618 (UniProt Q86VW0) 0.00175, UniProt Q86Y56_C841 -0.0103, ZFYVE16 C895 (UniProt Q7Z3T8) 0.251, TBC1D1 C1160 (UniProt Q86TI0) 0.518, THOC6 C279 (UniProt Q86W42) 0.275, APTX C161 (UniProt Q7Z2E3) 0.182, DHX37 C1026 (UniProt Q8IY37) 0.262, DHX29 C1025 (UniProt Q7Z478) 0.171, UniProt Q7RTV0_C46 0.104, CYFIP1 C1088 (UniProt Q7L576) -0.0483, UniProt Q86Y56_C173 0.367, UniProt Q7L0Y3_C78 0.214, DCXR C138 (UniProt Q7Z4W1) 0.0729, DHX30 C286 (UniProt Q7L2E3) -0.0543, SLFN11 C760 (UniProt Q7Z7L1) 0.123, UniProt Q7L1Q6_C35 -0.148, CYFIP1 C98 (UniProt Q7L576) 0.285, PBRM1 C138 (UniProt Q86U86) 0.0277, UniProt Q7Z5K2_C293 0.0204, UniProt Q86YR5_C497 0.294, CEP97 C336 (UniProt Q8IW35) 0.711, SLX4 C1269 (UniProt Q8IY92) 0.464, GSPT2 C93 (UniProt Q8IYD1) 0.444, MGA C2202 (UniProt Q8IWI9) 0.284, CYFIP1 C179 (UniProt Q7L576) 0.427, TRMT2A C191 (UniProt Q8IZ69) 0.0973, SETX C2451 (UniProt Q7Z333) 0.236
